We go through 42 sequences from article PMC7819943, “Rice protein-binding microarrays: a tool to detect cis-acting elements near promoter regions in rice”.

The chains behind the UniProt entries cited, without tags or fusion partners.
UniProt Q0JBA9, entry or part of it: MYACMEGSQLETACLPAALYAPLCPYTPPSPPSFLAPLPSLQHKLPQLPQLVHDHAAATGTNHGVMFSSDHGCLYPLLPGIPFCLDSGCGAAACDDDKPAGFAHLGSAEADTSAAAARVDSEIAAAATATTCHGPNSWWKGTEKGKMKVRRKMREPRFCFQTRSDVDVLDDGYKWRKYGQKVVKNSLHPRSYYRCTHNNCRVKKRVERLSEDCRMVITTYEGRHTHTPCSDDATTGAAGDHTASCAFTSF

The list shows a part of the results.

In the experiment the target is OsWRKY34 (Oryza sativa, UniProt Q0JBA9 1-250). As to the kind of experiment: protein-binding microarray (RPBM); PBS, 2% BSA, 51.3 ng/ul salmon testes DNA, 50 uM zinc acetate, 200 nM TF, 25 C, 1 h; high values mean tight binding. Particulars: protein: recombinant; tags: N-terminal polyhistidine and DsRed monomer fusion (pET32a); label: CyDye5-dUTP incorporated in the synthesized complementary strand; 3' TTTTT single-stranded linker to array surface; dsDNA, one strand shown. The method in brief: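 The binding signal is fluorescence intensity per feature, in arbitrary units, read on an Axon 4000B scanner. Polyhistidine- and DsRed-tagged transcription factors (N-terminal fusions) from E. coli BL21-CodonPlus were purified on Ni–NTA and applied at 200 nM for 1 h at 25 °C to a double-stranded, BSA-blocked custom Agilent array in buffer with 50 µM zinc acetate.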
Take “ACATAGCCAGTTGAGCTCACTTTGCAAATTAAGGTTTTTTCGGAGTCACCTAGTGCAG”: the binding signal is 8500 fluorescence intensity (a.u.). On to “ATCTCGCCTCGCTCTAATAACACTTCATCTTCCGAGTTCCCGGAGTCACCTAGTGCAG”, for which the binding signal was 8380 fluorescence intensity (a.u.). With “TATAGGTGTGGTTTATTATTTTTATTAATTTTATAAATTTCGGAGTCACCTAGTGCAG” the figure was 10600 fluorescence intensity (a.u.); with “TTCTCCTGTCATTCTGTCGAGCTTTGTATCACGTAATCCTCGGAGTCACCTAGTGCAG”, 12000 fluorescence intensity (a.u.); with “ATAGATGTTGCTTTGACTTTCTGCTTACAATATTTGACCACGGAGTCACCTAGTGCAG”, 14300 fluorescence intensity (a.u.).

Take “TCCGCCCGATCCGTCCGCCGCCTCCAGATCCGCGCCCATGCGGAGTCACCTAGTGCAG”: the binding signal is 14000 fluorescence intensity (a.u.). Consider “GAGGTGACGCTGCCGCCGGCGGTGGGCGGAGTGGGAGGGGCGGAGTCACCTAGTGCAG”, for which the binding signal was 8390 fluorescence intensity (a.u.). As to “GAGATTCTACTAGCTATAGGTGATTCCCTCTGGTTTTTTCCGGAGTCACCTAGTGCAG”, the binding signal was 8140 fluorescence intensity (a.u.). Consider “ATCAAACTGTTATTTCTGTATTTTTCCTGTGTTTTACAATCGGAGTCACCTAGTGCAG”, for which the binding signal was 8920 fluorescence intensity (a.u.). With “GCTGCCAACCCGAGTCACGAGACCTCATCTCTCCTCAATCCGGAGTCACCTAGTGCAG”, the binding signal was 10400 fluorescence intensity (a.u.). Under “CAGTTTCATCCCTAGGTGGTGGTGGCGGTGCGTGGAGTGACGGAGTCACCTAGTGCAG” stands 16600 fluorescence intensity (a.u.); under “TGTTATGCAGTTGATTCTCTTTCTAGCTGTCTAAATTTCTCGGAGTCACCTAGTGCAG”, 8910 fluorescence intensity (a.u.).

For “GTAAATGACAAATGGGTCCCACACATATTTTTTTTATTTCCGGAGTCACCTAGTGCAG”, the binding signal was 8060 fluorescence intensity (a.u.). On to “TGCCCTCGTCATTTTTGCGCGACGGTTCAGTGATATCGACCGGAGTCACCTAGTGCAG”, for which the binding signal is 8610 fluorescence intensity (a.u.). As to “CCACTGCCTGTCGCTGCCATTCTTGTCGCCATCGCATCGCCGGAGTCACCTAGTGCAG”, the binding signal was 9600 fluorescence intensity (a.u.).

Take “CATGTCACCGGTCAGCCTCATCGCCGCTCCCAAAAAAGACCGGAGTCACCTAGTGCAG”: the binding signal is 8280 fluorescence intensity (a.u.). For the sequence “CTATAAATACACGACGTCTCTCCGCTGGCTTACACACAACCGGAGTCACCTAGTGCAG”, the binding signal is 10100 fluorescence intensity (a.u.). Take “AATATCTTGCAGCTATTTCTTTTTCTATTACATTGAACCCCGGAGTCACCTAGTGCAG”: the binding signal was 8820 fluorescence intensity (a.u.). Consider “TTTTAGCCTATGTAATGTGTGCAAGTTTTAGCCTGATTTCCGGAGTCACCTAGTGCAG”, for which the binding signal was 8960 fluorescence intensity (a.u.). Regarding “TTTACGTTTGAATCACCATTCTACATACTATTTAAATTTACGGAGTCACCTAGTGCAG”, the binding signal is 8100 fluorescence intensity (a.u.). “TTCTATCACATCAAAACTTTTCTACACACACAAACTTTCACGGAGTCACCTAGTGCAG”: the binding signal is 8700 fluorescence intensity (a.u.). Under “CCTCGTCGCGTTCATATTTGCTCACGGCTCGCGCGGCACTCGGAGTCACCTAGTGCAG” stands 11900 fluorescence intensity (a.u.); under “GGCTTGTTAGCCGATCGGCTGTTTGATCTATTATTTGCAACGGAGTCACCTAGTGCAG”, 8870 fluorescence intensity (a.u.). In the case of “GTGGTTTTTTCTTTTCCATTTTTTTGTTGCTTTCCGAAAGCGGAGTCACCTAGTGCAG”, the binding signal was 11400 fluorescence intensity (a.u.).

For “CCTATTAGTAGTAGGCAACACATAAAGCCTTTTTTATTCCCGGAGTCACCTAGTGCAG”, the binding signal is 8110 fluorescence intensity (a.u.). As for “TCATTCTTTTTCTCAATGTACTTGGATTTTTTTCATGTTTCGGAGTCACCTAGTGCAG”, the binding signal was 12200 fluorescence intensity (a.u.). With “CATTCATCCATCTTTCCTTCCATCACTTGCTGGGCTAGCACGGAGTCACCTAGTGCAG” the figure was 8220 fluorescence intensity (a.u.). In the case of “GGCCTCACTATCGTCGACTCCTCCACTCCGGGGACTGCCGCGGAGTCACCTAGTGCAG”, the binding signal is 10000 fluorescence intensity (a.u.). With “GTCTGCTTGTTCGGAACCCCACTTTATCGTGTATCAATTCCGGAGTCACCTAGTGCAG” the figure was 11200 fluorescence intensity (a.u.); with “AACTCCCTCATTCGATCGCCGTCTTCTTCCAGCTCGAGCCCGGAGTCACCTAGTGCAG”, 8460 fluorescence intensity (a.u.); with “GGATGGATGTGAATGGATGTGTGTACATGTTGCTAGTTGACGGAGTCACCTAGTGCAG”, 10500 fluorescence intensity (a.u.). On to “TCGACCCACCGTCTGCCACGTCAGCTTGCCGCCCACCAATCGGAGTCACCTAGTGCAG”, for which the binding signal was 8730 fluorescence intensity (a.u.). For the sequence “TTTTTTTTAGTTCTGATCGGTATTTTTGGATGCTTTGAATCGGAGTCACCTAGTGCAG”, the binding signal was 8270 fluorescence intensity (a.u.). In the case of “GGGTTTAGGTTTTACAGGGAAATTTACATGGTTACCCTTACGGAGTCACCTAGTGCAG”, the binding signal is 8920 fluorescence intensity (a.u.). “GTGGGGCTTGTTCGTTGCTACCTCCTTCATCATCGGCTTGCGGAGTCACCTAGTGCAG”: the binding signal was 10500 fluorescence intensity (a.u.). On to “GATAATATTCGATTTCATTTTCGTATCCGAGTTTTCGATTCGGAGTCACCTAGTGCAG”, for which the binding signal was 8910 fluorescence intensity (a.u.). In the case of “GGAGGAGGTGGAGAAGGGGAGGCGGCCGGTGAGCAACGCGCGGAGTCACCTAGTGCAG”, the binding signal is 8550 fluorescence intensity (a.u.). As to “ACCACCAAATTTCCGGATTTCCGGTCCCGTGTATCCCCAACGGAGTCACCTAGTGCAG”, the binding signal is 9350 fluorescence intensity (a.u.). With “AGACCAAATCTCACATCGCTTCCAATACCACCTCCTTCGCCGGAGTCACCTAGTGCAG”, the binding signal was 8030 fluorescence intensity (a.u.). On to “ACGCACCCGCACGCGCACGCATTTCCAGCTCGCGACGACGCGGAGTCACCTAGTGCAG”, for which the binding signal was 9330 fluorescence intensity (a.u.). As to “TGATACCCGCACCCATCTAGCACATCTCTCGCATCCCAATCGGAGTCACCTAGTGCAG”, the binding signal is 13900 fluorescence intensity (a.u.).

As for “CTTCCTTCCAGCGATAGTGCTTCTTCCTGCTCTTCGTTTCCGGAGTCACCTAGTGCAG”, the binding signal was 10800 fluorescence intensity (a.u.).
